Record: PubChem BioAssay AID1259424 (University of Nebraska Medical Center, 2018)
Aim: 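Find knockdowns that reproduce the expression shifts seen after KSR1 loss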 (primary screen). System: human HCT116 colon cancer cells. Reagent: siRNA pool against human genes, 50 nM. Read-out: 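Six signature mRNAs by branched-DNA multiplex assay, scaled to two housekeeping genes and non-targeting median, log2; matched to mean KSR1 knockdown profile by Pearson correlation and euclidean distance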. Scale: mean correlation with KSR1 profile and KSR1 correlation: higher = expression change more like KSR1 knockdown; mean distance from KSR1 profile: higher = expression change less like KSR1 knockdown.
The whole screen tested about 14,000 reagents; this is a random part of them. 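Higher correlation or smaller distance means closer resemblance to KSR1 loss; control wells, including KSR1 knockdowns, recur on many plates.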 No sequences are given here. Not stated in the record: the time to read-out.

target | mean correlation with KSR1 profile | mean distance from KSR1 profile | KSR1 correlation, replicate 1 | KSR1 correlation, replicate 2 | KSR1 correlation, replicate 3
PLA2G2E | 0.288 | 2.25 | 0.398 | 0.212 | 0.108
RAD54L | -0.228 | 1.27 | -0.459 | 0.269 | -0.085
PF4V1 | -0.156 | 2.33 | 0.0921 | -0.0457 | -0.301
MYO1E | -0.0544 | 0.855 | 0.126 | 0.452 | -0.318
PLTP | 0.433 | 1.5 | 0.21 | 0.349 | 0.488
WHRN | -0.394 | 1.82 | -0.267 | -0.455 | -0.468
SLC66A1 | -0.396 | 1.75 | -0.0884 | -0.357 | -0.548
RGS16 | 0.0684 | 1.83 | 0.148 | 0.314 | 0.29
RNF5 | -0.303 | 2.66 | -0.166 | -0.36 | -0.234
CGA | 0.0299 | 2.44 | 0.277 | -0.203 | -0.1
ISG15 | -0.256 | 1.61 | -0.323 | 0.0543 | 0.065
TM4SF4 | 0.293 | 3.88 | 0.297 | 0.314 | 0.109
ECM2 | -0.107 | 1.65 | -0.0461 | -0.0762 | -0.35
ZSCAN2 | -0.453 | 2.78 | -0.605 | -0.564 | -0.474
FERMT3 | 0.632 | 1.57 | 0.333 | 0.698 | 0.63
SPTAN1 | -0.465 | 2.21 | -0.296 | -0.618 | -0.0452
EBLN2 | -0.171 | 1.52 | -0.234 | -0.478 | 0.000883
TPD52L2 | -0.0479 | 1.35 | -0.0291 | -0.0253 | -0.11
SLCO1C1 | -0.628 | 7.38 | -0.381 | -0.45 | -0.483
TRHDE | -0.162 | 5.04 | -0.0933 | -0.0104 | -0.0648
AGFG2 | 0.041 | 4.39 | -0.236 | 0.24 | -0.12
CLASP1 | 0.0332 | 3.56 | -0.0306 | 0.173 | -0.0298
CEP78 | 0.428 | 2.01 | 0.273 | 0.332 | 0.689
ISCU | -0.382 | 5.88 | -0.23 | -0.432 | -0.49
HSPD1 | 0.219 | 2.37 | 0.343 | 0.325 | 0.177
CACNA2D2 | -0.126 | 2.92 | -0.0168 | -0.251 | 0.0976
DMRTC2 | -0.613 | 2.55 | -0.324 | -0.709 | -0.747
IFITM1 | -0.126 | 3.97 | -0.0297 | -0.149 | -0.42
PLA2G3 | 0.539 | 0.966 | 0.647 | 0.607 | 0.228
XPA | 0.0276 | 1.52 | 0.457 | -0.102 | -0.206
PBX1 | -0.531 | 2.35 | -0.532 | -0.575 | -0.474
INSIG2 | 0.304 | 0.983 | 0.226 | 0.0421 | 0.241
UCHL1 | -0.0162 | 1.39 | -0.0321 | -0.095 | -0.0203
HYAL1 | -0.272 | 2.01 | -0.206 | -0.386 | -0.281
ZNF771 | 0.445 | 4.66 | 0.332 | 0.52 | 0.435
CAMTA1 | -0.586 | 1.97 | -0.532 | -0.835 | -0.252
COL9A3 | -0.154 | 4.38 | -0.112 | -0.134 | -0.283
CALB2 | 0.131 | 4.09 | 0.161 | 0.21 | 0.0454
SUCLG1 | 0.449 | 3.93 | 0.426 | 0.428 | 0.278
GAGE6 | -0.186 | 2.25 | -0.279 | -0.348 | -0.248
GALR2 | 0.68 | 1.67 | 0.747 | 0.755 | 0.489
TLL1 | 0.214 | 3.11 | 0.302 | 0.111 | 0.128
CCDC71 | -0.0231 | 2.23 | -0.244 | -0.342 | 0.0597
SMOC2 | -0.157 | 1.82 | -0.385 | -0.0555 | -0.12
GNPTAB | -0.225 | 2.48 | -0.403 | -0.356 | -0.185
SPRTN | 0.0059 | 1.85 | -0.582 | -0.0352 | 0.526
TENM2 | 0.142 | 2.81 | 0.052 | 0.304 | 0.342
NDUFS5 | 0.0323 | 2.22 | 0.209 | -0.0664 | -0.352
NECTIN4 | -0.257 | 2.62 | -0.162 | -0.509 | -0.21
TMX4 | 0.28 | 0.828 | 0.257 | 0.123 | 0.411
